Assay results published in PubChem BioAssay AID1347076 (National Center for Advancing Translational Sciences (NCATS), 2019).
Among all 400,000 compounds or so, about 13,000 (3.2%) were called active. The shares of active, inactive and inconclusive entries below differ from those in the screen. Calls come from the whole dose curve; as a rule, active = well fitted cell-killing curve with a large enough effect; inconclusive = small, poorly fitted or top-dose-only effect, or effect the other way; inactive = flat fitted curve, though single readings scatter. Potencies of inconclusive entries are doubtful fits and often do not repeat.

assay: qHTS assay for MDR1-selective chemotherapeutics: Primary screen using the drug-selected MDR subline cells KB-V1; conditions: KB-V1 MDR cells viability, CellTiter-Glo, 72 h; activity change, negative = cytotoxicity: at 46.1 µM (top of the series); note: nearly all actives have a fitted effect of over 60% in size
Procedure, shortened: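 Readout: CellTiter-Glo luminescence, 10 min after addition. Cells: KB-V1 MDR subline, 72 h at 37 degrees C with compound. Analysis: corrected, normalized data fitted to concentration-effect curves.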
% is set by controls: 0 for no effect and ±100 for the full control effect; potency is the fitted concentration of half-maximal effect.

For `Cc1ccc(OCc2cc(C(=O)NC3CCCCC3)no2)cn1`, which Potency is on record?
The Potency was inconclusive: 6.51 µM [cytotoxic, full curve, poor fit].

For `CC(C)c1cccc(C(C)C)c1NC(=O)c1ccc(-c2cc(Cl)ccc2Cl)o1`, which Potency is on record?
The Potency was inconclusive: 18.4 µM [cytotoxic, single point].

For `CC(C)(C)C(c1nc2ccccc2[nH]1)n1c(-c2ccsc2)nc2ccccc21` (centres undefined), which Potency is on record?
Its Potency is inconclusive: 20.6 µM [cytotoxic, partial curve, poor fit].

Which Potency does the source give for `CCCCn1nnnc1C(c1cc2ccccc2o1)N1CCCC1` (centres undefined) here?
The Potency was inconclusive: 20.6 µM [cytotoxic, partial curve, poor fit].

Which Potency does the source give for `COCCNC(=O)c1ccccc1NC(=O)CCSc1ccccc1` here?
Its Potency is inconclusive: 29.1 µM [cytotoxic, single point].

With `Cc1cc(C(=O)CN2C(=O)C3CC=CCC3C2=O)c(C)n1-c1ccccc1` (centres undefined) as the compound, how does the Potency read?
The Potency was inconclusive: 5.8 µM [cytotoxic, full curve].

For `c1ccc(Cn2nnc3c(N4CCOCC4)ncnc32)cc1`, which “activity change, negative = cytotoxicity” value is on record?
Its value is inactive: 3.63%.

Which Potency does the source give for `O=C(NCc1cccnc1)c1cc(Sc2ccccc2Cl)nc2ccccc12` here?
Its Potency is inconclusive: 29.1 µM [cytotoxic, single point].

Which Potency does the source give for `Cc1ccc(S(=O)(=O)C[C@@H]2OC3CCCCC3N2S(=O)(=O)c2ccc(C)cc2)cc1` (some centres undefined) here?
The Potency was inconclusive: 10.3 µM [cytotoxic, partial curve].

Which Potency does the source give for `CSCC[C@H](NC(=O)C1CCN(S(=O)(=O)c2ccc(C)cc2C)CC1)c1nc2ccccc2[nH]1` here?
Its Potency is active: 23.1 µM.

For `CCOc1ccccc1NC(=O)COc1coc(CN2CCCc3ccccc32)cc1=O`, which “activity change, negative = cytotoxicity” value is on record?
The value was inactive: 0%.

For `O=C1c2ccccc2C(c2nnnn2Cc2ccccc2)N1Cc1cccs1` (centres undefined), which Potency is on record?
The Potency was inconclusive: 5.8 µM [cytotoxic, partial curve].

Which Potency does the source give for `Cc1ccc(S(=O)(=O)NC2CC2)s1` here?
Its Potency is inconclusive: 29.1 µM [rising, single point].

For `O=C(CCCCn1c(=O)c2ccccc2n(Cc2cccc(Cl)c2)c1=O)NCc1ccc2c(c1)OCO2`, which “activity change, negative = cytotoxicity” value is on record?
The value was inactive: -9.21%.

For `O=C(O)C1CCCCC1C(=O)NCCc1ccc(Cl)cc1` (centres undefined), which “activity change, negative = cytotoxicity” value is on record?
Its value is inactive: -5.84%.

For `COc1ccc(/C=N\NC(=O)c2ccc(-c3ccccc3)cc2)cc1COC(C)=O`, which Potency is on record?
Its Potency is inconclusive: 18.4 µM [cytotoxic, partial curve, poor fit].

For `CCOC(=O)c1c(CSc2nc(C)cc(C)c2C#N)n(C)c2cc(Br)c(OC(C)=O)cc12`, which Potency is on record?
The Potency was inconclusive: 9.2 µM [cytotoxic, partial curve, poor fit].

Which “activity change, negative = cytotoxicity” value does the source give for `COc1ccc(NC(=O)N(CCCN(C)C)Cc2cc3cc(OC)ccc3[nH]c2=O)cc1` here?
The value was inactive: 7.51%.

With `O=c1c2ccccc2nc(-c2ccccc2)n1CCCn1ccnc1` as the compound, how does the “activity change, negative = cytotoxicity” value read?
Its value is inactive: 3.37%.

With `Fc1ccc(CSc2ncnc3c2ncn3C2CCCCO2)cc1` (centres undefined) as the compound, how does the Potency read?
Its Potency is active: 20.6 µM.

With `Cc1ccccc1NC(=S)NCc1ccc2c(c1)cc(C)n2C` as the compound, how does the Potency read?
Its Potency is active: 20.6 µM.

For `COc1ccc(N2CC(C(=O)N[C@@H](C)C(=O)NC(C)c3ccccc3)CC2=O)cc1` (some centres undefined), which Potency is on record?
Its Potency is inconclusive: 5.8 µM [rising, partial curve].

Which Potency does the source give for `C=C1C(=O)O[C@@]23[C@H]1CC[C@@H](C)[C@@H]2CC[C@@]1(C)O[C@@H]31` here?
The Potency was inconclusive: 29.1 µM [rising, single point].

Which “activity change, negative = cytotoxicity” value does the source give for `N#Cc1ccc(C23OCCN2CCn2c3c3ccccc3[n+]2[O-])cc1` (centres undefined) here?
Its value is inactive: -17.2%.

Which “activity change, negative = cytotoxicity” value does the source give for `COc1cccc(C(NC(C)=O)c2nc(-c3cccc4cccnc34)cs2)c1` (centres undefined) here?
The value was inactive: 0%.

For `NC(=O)CN1C(=O)C(=O)N(Cc2cccc(C(F)(F)F)c2)C1=O`, which “activity change, negative = cytotoxicity” value is on record?
The value was inactive: 14.7%.

For `CC1CCN(C(=O)CNC(=O)Cn2ccc3ccccc3c2=O)CC1`, which Potency is on record?
Its Potency is inconclusive: 32.6 µM [cytotoxic, single point].

Which Potency does the source give for `CCCc1cc(-c2n[nH]c(=S)n2CC)cs1` here?
The Potency was inconclusive: 16.4 µM [cytotoxic, single point].

With `CN(C)c1cc(-c2ccccc2)nc(N)n1` as the compound, how does the Potency read?
The Potency was inconclusive: 18.4 µM [cytotoxic, single point].

Which Potency does the source give for `COc1ccc(OC)c(NC(=O)CSC2=NCCS2)c1` here?
The Potency was inconclusive: 29.1 µM [cytotoxic, single point].

Which “activity change, negative = cytotoxicity” value does the source give for `CCc1nnc(NC(=O)CSc2nnc(CNc3cccc(Cl)c3)n2CC)s1` here?
The value was inactive: 4.77%.

With `CC1(C)CC2CC(C)(CN2S(=O)(=O)c2ccc(C(=O)Nc3ccc(S(=O)(=O)N4CCOCC4)cc3)cc2)C1` (centres undefined) as the compound, how does the Potency read?
Its Potency is inconclusive: 2.06 µM [cytotoxic, full curve].

For `O=C(Nc1ccc(Cl)cc1C(F)(F)F)C(Sc1nnc(-c2cccs2)o1)c1ccccc1` (centres undefined), which Potency is on record?
The Potency was active: 14.6 µM.

With `CCN1C(=O)C(CC(=O)Nc2ccc(OC)cc2)N(Cc2cccs2)C1=S` (centres undefined) as the compound, how does the “activity change, negative = cytotoxicity” value read?
Its value is inactive: 0%.

For `COC(=O)c1ccc(NC(=O)Nc2ccc(F)cc2F)cc1`, which Potency is on record?
The Potency was inconclusive: 32.6 µM [cytotoxic, single point].

Which “activity change, negative = cytotoxicity” value does the source give for `Cc1ccc(N=C2SC(C(=O)O)CC(=O)N2C)cc1C` (centres undefined) here?
The value was inactive: 12.3%.

Which Potency does the source give for `O=S(=O)(c1ccc(Oc2ccc(Br)cc2)cc1)N1CCOCC1` here?
The Potency was active: 11.6 µM.

With `Cc1c(/C=N/n2cnnc2)c2ccccc2n1CCOc1ccccc1` as the compound, how does the Potency read?
The Potency was inconclusive: 29.1 µM [cytotoxic, single point].

For `Cc1ccc(C(=O)N/C(=C/c2ccc(-c3ccc([N+](=O)[O-])cc3)o2)C(=O)NCCCN(C)C)cc1`, which “activity change, negative = cytotoxicity” value is on record?
The value was inactive: -11.9%.

With `COC(=O)c1ccc(C(=O)OC)c(NC(=O)c2cnn3c(C(F)F)cc(-c4ccc(C)cc4)nc23)c1` as the compound, how does the “activity change, negative = cytotoxicity” value read?
The value was inactive: 5.54%.

For `COc1ccc(Cl)cc1NC(=O)CC(C)c1ccccc1` (centres undefined), which Potency is on record?
The Potency was inconclusive: 29.1 µM [cytotoxic, single point].

With `CCn1c(COc2ccccc2C)nnc1SCC(=O)O` as the compound, how does the Potency read?
Its Potency is inconclusive: 1.46 µM [rising, partial curve, poor fit].

With `c1ccc(-c2nnc(-c3ccccn3)nc2NC2CCCCC2)cc1` as the compound, how does the Potency read?
The Potency was inconclusive: 9.2 µM [cytotoxic, partial curve, poor fit].

Which Potency does the source give for `O=C(CN1CCN(S(=O)(=O)c2ccc(Br)cc2)CC1)N/N=C/c1cc([N+](=O)[O-])ccc1Cl` here?
Its Potency is inconclusive: 20.6 µM [cytotoxic, single point].

For `C/C(=N\NC(=S)Nc1cc(S(=O)(=O)N2CCOCC2)ccc1Cl)c1ccc(N2CCOCC2)cc1`, which “activity change, negative = cytotoxicity” value is on record?
The value was inactive: 14.8%.

For `Cc1[nH]c2ccccc2c1/C=N/Nc1ccccc1[N+](=O)[O-]`, which Potency is on record?
Its Potency is inconclusive: 25.9 µM [cytotoxic, single point].

For `O=C1NCCN(Cc2cccc(Oc3ccccc3)c2)C1CC(=O)N1CCCCO1` (centres undefined), which Potency is on record?
The Potency was inconclusive: 0.651 µM [cytotoxic, partial curve, poor fit].

For `CCOC(=O)N1CCN(C2OC(=O)c3ccccc32)CC1` (centres undefined), which Potency is on record?
The Potency was inconclusive: 9.2 µM [rising, partial curve, poor fit].

Which Potency does the source give for `CC(C)=C1SC(N2CCN(Cc3ccccc3)CC2)=NC1=O` here?
Its Potency is inconclusive: 20.6 µM [cytotoxic, partial curve].

With `CC(=O)c1cccc(N(CC(=O)NCC2CCCO2)C(=O)CCC(=O)Nc2cc(C)on2)c1` (centres undefined) as the compound, how does the Potency read?
The Potency was inconclusive: 29.1 µM [rising, partial curve, poor fit].

Which activity change, negative = cytotoxicity does the source give for `CC(C)(CNS(C)(=O)=O)SCc1ccc(Cl)cc1` here?
The activity change, negative = cytotoxicity was inconclusive: 31.1%.

With `CC1=Nc2cc(C(=O)NC3CCCC3)ccc2Sc2ccc(Cl)cc21` as the compound, how does the Potency read?
The Potency was active: 3.66 µM.

Which Potency does the source give for `Cc1ccc(Cl)c(OCC(=O)Nc2ccc3c(c2)OCCO3)c1` here?
The Potency was inconclusive: 29.1 µM [cytotoxic, single point].

For `CCC(c1nnnn1C1CCCC1)N(Cc1cccs1)Cc1cc2cccc(C)c2[nH]c1=O` (centres undefined), which Potency is on record?
The Potency was active: 23.1 µM.

With `CCc1ccc(-c2cc(C)no2)cc1S(=O)(=O)N1CCN(c2cccc(C)c2C)CC1` as the compound, how does the Potency read?
Its Potency is inconclusive: 4.61 µM [cytotoxic, full curve, poor fit].

Which Potency does the source give for `O=C(Nc1ccc(Cc2ccncc2)cc1)C1CC1` here?
Its Potency is inconclusive: 18.4 µM [cytotoxic, single point].

With `CC(Oc1cc2oc(=O)c3c(c2cc1Cl)CCCC3)C(=O)NCc1ccccn1` (centres undefined) as the compound, how does the Potency read?
Its Potency is inconclusive: 2.91 µM [cytotoxic, full curve, poor fit].

With `CC(C)CN(CC(C)C)S(=O)(=O)c1ccc(C(=O)Nc2sc3c(c2C(N)=O)CCN(C(C)C)C3)cc1` as the compound, how does the Potency read?
Its Potency is inconclusive: 7.31 µM [cytotoxic, single point].

Which Potency does the source give for `COc1ccc(/C=C/C=C2\N=C(SC)SC2=O)cc1` here?
The Potency was inconclusive: 8.2 µM [rising, partial curve, poor fit].

For `Cc1cc(C)c(S(=O)(=O)c2ccccc2C)c(Cl)n1`, which Potency is on record?
Its Potency is inconclusive: 20.6 µM [cytotoxic, single point].

For `O=C1NC(=O)C(c2ccccc2)(c2ccccc2)N1S(=O)(=O)c1ccccc1`, which “activity change, negative = cytotoxicity” value is on record?
The value was inactive: 1.36%.

With `O=C(CNc1ccc(Cl)cc1)c1ccc(Br)cc1` as the compound, how does the Potency read?
The Potency was inconclusive: 10.3 µM [rising, single point].

With `CC(C)Nc1oc(Cc2cccc3ccccc23)nc1C#N` as the compound, how does the Potency read?
Its Potency is active: 16.4 µM.

With `CC1(C)C[C@H]2C3=CCC4[C@@]5(C)CC[C@H](O)C(C)(C)C5CC[C@@]4(C)[C@]3(C)[C@@H](O)[C@@H](O)[C@@]2(CO)[C@@H](O)[C@@H]1O` (some centres undefined) as the compound, how does the Potency read?
Its Potency is inconclusive: 29.1 µM [rising, single point].

Which Potency does the source give for `COc1cc(N=c2c([N+](=O)[O-])nn(-c3ccc4c(c3)OCCO4)n2O)cc(OC)c1` here?
The Potency was active: 6.51 µM.

For `COC(=O)c1scc(-c2ccc(C)cc2)c1S(=O)(=O)N1CCN(c2ccccc2F)CC1`, which “activity change, negative = cytotoxicity” value is on record?
The value was inactive: 1.7%.

Which “activity change, negative = cytotoxicity” value does the source give for `CC1C(=O)N(Cc2cn(CCC3OCCO3)nn2)CCS(=O)(=O)N1Cc1ccc(-c2ccc(F)cc2)cc1` (centres undefined) here?
Its value is inactive: -16.9%.

For `O=C1/C(=C\c2ccc3c(c2)OCO3)CCC/C1=C/c1ccc2c(c1)OCO2`, which “activity change, negative = cytotoxicity” value is on record?
Its value is inactive: -14.7%.

With `CCCCc1c(O)nc(SCC(=O)NCCc2ccc(OC)c(OC)c2)[nH]c1=O` as the compound, how does the Potency read?
The Potency was inconclusive: 9.2 µM [rising, partial curve, poor fit].
